This is one part of the list.
Key:
Assay in all cases: glycan array binding signal (z-score within array); higher = stronger binding
Details in all cases: glycan notation: IUPAC condensed, linker removed
[1] = biological target: Fuc(a1-2)[Gal(a1-3)]Gal(b1-4)GlcNAc(b1-2)Man(a1-3)[Fuc(a1-2)[Gal(a1-3)]Gal(b1-4)GlcNAc(b1-2)Man(a1-6)]Man(b1-4)GlcNAc(b1-4)[Fuc(a1-6)]GlcNAc
Method in brief: (§1)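 Glycan array binding is given as a within-array Z-score, which can be read as non-binding when negative. The arrays, 3228 of them, came from the Consortium for Functional Glycomics database and were retained only where the protein sequence was available. Z-scores were averaged across arrays of the same protein sequence at different concentrations or buffers and across linkers.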

[2] = biological target: Fuc(a1-2)[Gal(a1-3)]Gal(b1-4)GlcNAc(b1-3)GalNAc
Method in brief: as §1

[3] = biological target: Fuc(a1-2)[Gal(a1-3)]Gal(b1-4)GlcNAc(b1-3)[Fuc(a1-2)[Gal(a1-3)]Gal(b1-4)GlcNAc(b1-6)]GalNAc
Method in brief: as §1

[4] = biological target: Fuc(a1-2)[Gal(a1-3)]Gal(b1-4)GlcNAc(b1-6)GalNAc
Method in brief: as §1

[5] = biological target: Fuc(a1-2)[Gal(a1-3)]Gal(b1-4)[Fuc(a1-3)]Glc
Method in brief: as §1

[6] = biological target: Fuc(a1-2)[Gal(a1-3)]Gal(b1-4)[Fuc(a1-3)]GlcNAc
Method in brief: as §1

[7] = biological target: Fuc(a1-2)[Gal(a1-3)]Gal(b1-4)[Fuc(a1-3)]GlcNAc(b1-3)GalNAc
Method in brief: as §1

[8] = biological target: Fuc(a1-2)[Gal(a1-4)]Gal(b1-4)GlcNAc
Method in brief: as §1

[9] = biological target: Fuc(a1-2)[GalNAc(a1-3)]Gal
Method in brief: as §1

[10] = biological target: Fuc(a1-2)[GalNAc(a1-3)]Gal(b1-3)GalNAc(a1-3)[Fuc(a1-2)]Gal(b1-4)GlcNAc
Method in brief: as §1

[11] = biological target: Fuc(a1-2)[GalNAc(a1-3)]Gal(b1-3)GalNAc(b1-3)Gal(a1-4)Gal(b1-4)Glc
Method in brief: as §1

[12] = biological target: Fuc(a1-2)[GalNAc(a1-3)]Gal(b1-3)GlcNAc
Method in brief: as §1

[13] = biological target: Fuc(a1-2)[GalNAc(a1-3)]Gal(b1-3)GlcNAc(b1-2)Man(a1-3)[Fuc(a1-2)[GalNAc(a1-3)]Gal(b1-3)GlcNAc(b1-2)Man(a1-6)]Man(b1-4)GlcNAc(b1-4)GlcNAc
Method in brief: as §1

[14] = biological target: Fuc(a1-2)[GalNAc(a1-3)]Gal(b1-3)GlcNAc(b1-2)Man(a1-3)[Fuc(a1-2)[GalNAc(a1-3)]Gal(b1-3)GlcNAc(b1-2)Man(a1-6)]Man(b1-4)GlcNAc(b1-4)[Fuc(a1-6)]GlcNAc
Method in brief: as §1

[15] = biological target: Fuc(a1-2)[GalNAc(a1-3)]Gal(b1-3)GlcNAc(b1-3)GalNAc
Method in brief: as §1

[16] = biological target: Fuc(a1-2)[GalNAc(a1-3)]Gal(b1-3)GlcNAc(b1-6)GalNAc
Method in brief: as §1

[17] = biological target: Fuc(a1-2)[GalNAc(a1-3)]Gal(b1-4)Glc
Method in brief: as §1

[18] = biological target: Fuc(a1-2)[GalNAc(a1-3)]Gal(b1-4)GlcNAc
Method in brief: as §1

[19] = biological target: Fuc(a1-2)[GalNAc(a1-3)]Gal(b1-4)GlcNAc(b1-2)Man
Method in brief: as §1

[20] = biological target: Fuc(a1-2)[GalNAc(a1-3)]Gal(b1-4)GlcNAc(b1-2)Man(a1-3)[Fuc(a1-2)[GalNAc(a1-3)]Gal(b1-4)GlcNAc(b1-2)Man(a1-6)]Man(b1-4)GlcNAc(b1-4)GlcNAc
Method in brief: as §1

[21] = biological target: Fuc(a1-2)[GalNAc(a1-3)]Gal(b1-4)GlcNAc(b1-2)Man(a1-3)[Fuc(a1-2)[GalNAc(a1-3)]Gal(b1-4)GlcNAc(b1-2)Man(a1-6)]Man(b1-4)GlcNAc(b1-4)[Fuc(a1-6)]GlcNAc
Method in brief: as §1

[22] = biological target: Fuc(a1-2)[GalNAc(a1-3)]Gal(b1-4)GlcNAc(b1-3)Gal(b1-4)GlcNAc
Method in brief: as §1

[23] = biological target: Fuc(a1-2)[GalNAc(a1-3)]Gal(b1-4)GlcNAc(b1-3)Gal(b1-4)GlcNAc(b1-3)Gal(b1-4)GlcNAc
Method in brief: as §1

[24] = biological target: Fuc(a1-2)[GalNAc(a1-3)]Gal(b1-4)GlcNAc(b1-3)GalNAc
Method in brief: as §1

[25] = biological target: Fuc(a1-2)[GalNAc(a1-3)]Gal(b1-4)GlcNAc(b1-3)[Fuc(a1-2)[GalNAc(a1-3)]Gal(b1-4)GlcNAc(b1-6)]GalNAc
Method in brief: as §1

[26] = biological target: Fuc(a1-2)[GalNAc(a1-3)]Gal(b1-4)GlcNAc(b1-6)GalNAc
Method in brief: as §1

[27] = biological target: Fuc(a1-2)[GalNAc(a1-3)]Gal(b1-4)[Fuc(a1-3)]GlcNAc
Method in brief: as §1

[28] = biological target: Fuc(a1-2)[GalNAc(a1-3)]Gal(b1-4)[Fuc(a1-3)]GlcNAc(b1-3)GalNAc
Method in brief: as §1

[29] = biological target: Fuc(a1-2)[GalNAc(a1-4)]Gal(b1-4)GlcNAc
Method in brief: as §1

[30] = biological target: Fuc(a1-2)[GalNAc(b1-3)]Gal
Method in brief: as §1

Fuc(a1-3)GlcNAc = biological target: Fuc(a1-3)GlcNAc
Method in brief: as §1

[31] = biological target: Fuc(a1-3)[Gal(b1-4)]Glc6S
Method in brief: as §1

[32] = biological target: Fuc(a1-3)[Gal(b1-4)]GlcNAc
Method in brief: as §1

[33] = biological target: Fuc(a1-3)[Gal(b1-4)]GlcNAc(b1-2)Man
Method in brief: as §1

[34] = biological target: Fuc(a1-3)[Gal(b1-4)]GlcNAc(b1-2)Man(a1-3)[Fuc(a1-3)[Gal(b1-4)]GlcNAc(b1-2)Man(a1-6)]Man(b1-4)GlcNAc(b1-4)GlcNAc
Method in brief: as §1

[35] = biological target: Fuc(a1-3)[Gal(b1-4)]GlcNAc(b1-2)Man(a1-3)[Fuc(a1-3)[Gal(b1-4)]GlcNAc(b1-2)Man(a1-6)]Man(b1-4)GlcNAc(b1-4)[Fuc(a1-6)]GlcNAc
Method in brief: as §1

[36] = biological target: Fuc(a1-3)[Gal(b1-4)]GlcNAc(b1-3)Gal(b1-3)[Fuc(a1-4)]GlcNAc
Method in brief: as §1

[37] = biological target: Fuc(a1-3)[Gal(b1-4)]GlcNAc(b1-3)Gal(b1-4)[Fuc(a1-3)]GlcNAc
Method in brief: as §1

[38] = biological target: Fuc(a1-3)[Gal(b1-4)]GlcNAc(b1-3)Gal(b1-4)[Fuc(a1-3)]GlcNAc(b1-3)Gal(b1-4)[Fuc(a1-3)]GlcNAc
Method in brief: as §1

[39] = biological target: Fuc(a1-3)[Gal(b1-4)]GlcNAc(b1-3)GalNAc
Method in brief: as §1

[40] = biological target: Fuc(a1-3)[Gal(b1-4)]GlcNAc(b1-6)GalNAc
Method in brief: as §1

[41] = biological target: Fuc(a1-3)[Gal(b1-4)]GlcNAc(b1-6)[Gal(b1-3)GlcNAc(b1-3)]Gal(b1-4)Glc
Method in brief: as §1

[42] = biological target: Fuc(a1-3)[Gal(b1-4)]GlcNAc6S
Method in brief: as §1

[43] = biological target: Fuc(a1-3)[Gal3S(b1-4)]Glc
Method in brief: as §1

[44] = biological target: Fuc(a1-3)[Gal3S(b1-4)]GlcNAc
Method in brief: as §1

B1: EUL D1A first (Oryza sativa) (protein)
chain: MFGFGHHHNQAPAAPSDPNQIFKIFCRANENYCLTVRDSAVVLAPVNPKDEHQHWFKDMRFSTKVKDGEGMPAFALVNKATGLAVKHSLGQSHPVKLVPFNPEYEDASVLWTESKDVGKGFRCIRMVNNTRLNLDAFHGDKDHGGVRDGTTVVLWEWCKGDNQSWKILPWGPEAHSSSPGAATILEQKLISEEDLNSAVDHHHHHH
glycan array binding signal (z-score) [1]: -0.751
glycan array binding signal (z-score) [2]: -2.03
glycan array binding signal (z-score) [3]: 0.747
glycan array binding signal (z-score) [4]: 0.644
glycan array binding signal (z-score) [5]: -0.53
glycan array binding signal (z-score) [6]: 0.177
glycan array binding signal (z-score) [7]: 0.504
glycan array binding signal (z-score) [8]: -0.296
glycan array binding signal (z-score) [9]: -0.119
glycan array binding signal (z-score) [10]: -1.29
glycan array binding signal (z-score) [11]: -0.283
glycan array binding signal (z-score) [12]: 1.84
glycan array binding signal (z-score) [13]: -0.903
glycan array binding signal (z-score) [14]: 0.593
glycan array binding signal (z-score) [15]: -0.961
glycan array binding signal (z-score) [16]: -0.602
glycan array binding signal (z-score) [17]: 0.261
glycan array binding signal (z-score) [18]: 0.165
glycan array binding signal (z-score) [19]: -0.989
glycan array binding signal (z-score) [20]: -0.649
glycan array binding signal (z-score) [21]: 0.095
glycan array binding signal (z-score) [22]: -0.61
glycan array binding signal (z-score) [23]: 1.71
glycan array binding signal (z-score) [24]: -1.21
glycan array binding signal (z-score) [25]: -0.458
glycan array binding signal (z-score) [26]: -0.756
glycan array binding signal (z-score) [27]: -0.527
glycan array binding signal (z-score) [28]: 1.44
glycan array binding signal (z-score) [29]: 1.55
glycan array binding signal (z-score) [30]: -0.397
glycan array binding signal (z-score) (Fuc(a1-3)GlcNAc): 0.839
glycan array binding signal (z-score) [31]: -0.554
glycan array binding signal (z-score) [32]: -0.776
glycan array binding signal (z-score) [33]: 3.34
glycan array binding signal (z-score) [34]: 0.332
glycan array binding signal (z-score) [35]: 0.82
glycan array binding signal (z-score) [36]: -0.741
glycan array binding signal (z-score) [37]: -1.08
glycan array binding signal (z-score) [38]: 0.528
glycan array binding signal (z-score) [39]: 0.468
glycan array binding signal (z-score) [40]: 1.97
glycan array binding signal (z-score) [41]: -1.39
glycan array binding signal (z-score) [42]: 0.976
glycan array binding signal (z-score) [43]: 0.069
glycan array binding signal (z-score) [44]: 0.583
